Among the data in PMC12525004, “Bacillus subtilis DinG 3′⟶5′ Exo(ribo)nuclease: A Helpmate to Mitigate Replication Stress” (International Journal of Molecular Sciences, 2025) are binding values, retold here.

By UniProt entry, the sequences of proteins in these tests, tags left out.
UniProt O34996: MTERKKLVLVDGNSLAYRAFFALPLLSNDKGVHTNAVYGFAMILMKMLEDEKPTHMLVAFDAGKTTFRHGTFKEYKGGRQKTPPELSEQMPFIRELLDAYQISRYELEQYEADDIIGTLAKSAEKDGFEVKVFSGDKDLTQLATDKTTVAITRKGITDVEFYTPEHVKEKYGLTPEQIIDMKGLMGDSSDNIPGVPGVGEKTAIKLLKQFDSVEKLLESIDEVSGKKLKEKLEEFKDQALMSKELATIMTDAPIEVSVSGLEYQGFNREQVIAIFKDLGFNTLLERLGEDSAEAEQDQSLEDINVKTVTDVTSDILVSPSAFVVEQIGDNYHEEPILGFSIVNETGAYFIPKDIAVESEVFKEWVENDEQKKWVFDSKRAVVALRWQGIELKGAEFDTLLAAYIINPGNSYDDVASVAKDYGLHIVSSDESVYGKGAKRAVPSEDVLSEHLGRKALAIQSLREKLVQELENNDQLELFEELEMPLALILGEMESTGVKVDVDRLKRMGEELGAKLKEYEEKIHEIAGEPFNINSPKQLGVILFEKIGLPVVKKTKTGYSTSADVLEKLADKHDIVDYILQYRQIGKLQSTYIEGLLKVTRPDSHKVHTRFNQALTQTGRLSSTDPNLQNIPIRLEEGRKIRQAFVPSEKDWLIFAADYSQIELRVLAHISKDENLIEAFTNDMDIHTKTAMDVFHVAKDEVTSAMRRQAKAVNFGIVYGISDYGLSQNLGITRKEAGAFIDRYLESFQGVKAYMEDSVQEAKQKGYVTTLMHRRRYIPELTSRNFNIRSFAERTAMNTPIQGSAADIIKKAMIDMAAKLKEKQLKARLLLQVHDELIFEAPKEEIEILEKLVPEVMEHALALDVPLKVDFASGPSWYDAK

Experiment [1] deals with T1, DinG (T18 or T25 fusion) (B. subtilis) (UniProt P54394).
T1 sequence: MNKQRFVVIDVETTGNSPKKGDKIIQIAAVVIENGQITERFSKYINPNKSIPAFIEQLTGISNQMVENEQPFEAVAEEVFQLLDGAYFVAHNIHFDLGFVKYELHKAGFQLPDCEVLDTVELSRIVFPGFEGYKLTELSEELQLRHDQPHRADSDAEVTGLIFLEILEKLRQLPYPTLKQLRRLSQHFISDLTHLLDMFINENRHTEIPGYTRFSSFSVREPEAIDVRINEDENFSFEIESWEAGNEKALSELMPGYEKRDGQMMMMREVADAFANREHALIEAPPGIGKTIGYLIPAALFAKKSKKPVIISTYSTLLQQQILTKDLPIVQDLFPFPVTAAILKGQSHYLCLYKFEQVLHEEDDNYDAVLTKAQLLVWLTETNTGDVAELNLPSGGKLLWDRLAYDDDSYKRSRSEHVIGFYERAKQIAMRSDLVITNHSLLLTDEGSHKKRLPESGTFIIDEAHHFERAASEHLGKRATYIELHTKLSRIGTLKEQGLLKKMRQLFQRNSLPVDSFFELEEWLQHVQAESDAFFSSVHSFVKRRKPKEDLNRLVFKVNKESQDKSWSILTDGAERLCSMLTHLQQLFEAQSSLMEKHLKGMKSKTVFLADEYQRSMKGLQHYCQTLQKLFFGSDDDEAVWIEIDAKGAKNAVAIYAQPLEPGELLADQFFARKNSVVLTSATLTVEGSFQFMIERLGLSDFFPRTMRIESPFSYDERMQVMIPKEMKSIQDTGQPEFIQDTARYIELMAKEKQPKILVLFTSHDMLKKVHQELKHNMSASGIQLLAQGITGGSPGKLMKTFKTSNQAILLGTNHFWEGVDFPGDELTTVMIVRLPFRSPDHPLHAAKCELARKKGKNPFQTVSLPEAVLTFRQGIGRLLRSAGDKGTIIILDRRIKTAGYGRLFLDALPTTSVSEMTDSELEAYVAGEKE
The experiment in a line: two-hybrid; bacterial adenylate cyclase two-hybrid (T18/T25 fusions) in E. coli BTH101; co-transformants spotted on LB with 0.5 mM IPTG and X-gal, 3-4 days at 25 °C.

Experiment [2] concerns the target PolA (T18 or T25 fusion) (B. subtilis) (UniProt O34996). The experiment is described as above.
Experiment [3] addresses T2, PcrA (B. subtilis), O34580.
T2 chain: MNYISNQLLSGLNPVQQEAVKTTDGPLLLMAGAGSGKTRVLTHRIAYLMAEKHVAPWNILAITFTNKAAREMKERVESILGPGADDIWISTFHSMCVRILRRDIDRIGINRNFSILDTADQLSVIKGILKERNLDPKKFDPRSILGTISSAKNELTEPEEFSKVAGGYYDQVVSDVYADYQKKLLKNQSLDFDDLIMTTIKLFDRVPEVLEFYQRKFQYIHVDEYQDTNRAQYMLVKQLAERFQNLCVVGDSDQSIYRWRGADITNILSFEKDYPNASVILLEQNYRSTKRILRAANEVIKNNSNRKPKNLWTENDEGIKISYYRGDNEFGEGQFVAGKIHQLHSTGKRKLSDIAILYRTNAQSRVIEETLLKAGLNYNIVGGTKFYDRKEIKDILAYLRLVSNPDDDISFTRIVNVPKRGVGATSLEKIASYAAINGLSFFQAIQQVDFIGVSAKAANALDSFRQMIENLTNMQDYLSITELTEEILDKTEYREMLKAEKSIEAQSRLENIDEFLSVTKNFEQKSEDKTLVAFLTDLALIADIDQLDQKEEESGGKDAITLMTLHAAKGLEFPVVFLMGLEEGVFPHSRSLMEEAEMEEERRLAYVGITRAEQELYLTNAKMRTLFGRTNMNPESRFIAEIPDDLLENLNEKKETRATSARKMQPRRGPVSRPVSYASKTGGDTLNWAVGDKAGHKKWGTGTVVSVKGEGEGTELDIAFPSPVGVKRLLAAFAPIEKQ
Kind of experiment: far-Western, overlay or dot blot; immuno-dot blot: proteins (75-300 ng) spotted on nitrocellulose, blocked with 5% skimmed milk in PBS, incubated 6 h at 4 °C with 200 ng/ml RecA in PBS, 0.5% skimmed milk powder, 0.1% Triton X-100; washed; retained RecA detected with polyclonal anti-RecA antibody; both purified. The settings on record: remark: other sources report otherwise.

The target in experiment [4] is T3, DinG (B. subtilis), P54394.
T3 chain: T1 sequence
The description is as above. The settings on record: remark: other sources report otherwise.

No constants are given. Whether binding was seen depends on the method and setting. Some entries that bind do so weakly or less than the wild type. For some of these results: Tags and fused reporters may be left off the sequences shown.

B1: PolY1 (T18 or T25 fusion) (protein, UniProt P54545 1-414)
chain: MPGKSRIIFHIDMNSFYASVEMAYDPALRGKPVAVAGNVKERKGIVVTCSYEARARGVKTTMPVWQAKRHCPELIVLPPNFDRYRNSSRAMFTILREYTDLVEPVSIDEGYMDMTDTPYSSRALETAKEIQSRLQKELLLPSSIGIAPNKFLAKMASDMKKPLGITILRKRQVPDILWPLPVGEMHGVGKKTAEKLKGLGIHTIGELAAADEHSLKRLLGINGPRLKNKANGIHHAPVDPERIYEFKSVGNSSTLSHDSSDEEELLGVFRKLAASVSDRLQRKEVMASKLFIMIRYADWRTITRSTTLRNPIDQKNDILKEAEHLFFKHWNKNPVRLLGITGTDLVEKEQAYKQLDLFSFNEDAKDEPIQQMMEKLNKKYGTKLIRKGATLKKEESKTKGTSFNKDFFQDEKKS
With B1, the binding entry in experiment [1] was “no binding”.

B2: DnaN (T18 or T25 fusion) (protein, UniProt P05649 1-378)
chain: MKFTIQKDRLVESVQDVLKAVSSRTTIPILTGIKIVASDDGVSFTGSDSDISIESFIPKEEGDKEIVTIEQPGSIVLQARFFSEIVKKLPMATVEIEVQNQYLTIIRSGKAEFNLNGLDADEYPHLPQIEEHHAIQIPTDLLKNLIRQTVFAVSTSETRPILTGVNWKVEQSELLCTATDSHRLALRKAKLDIPEDRSYNVVIPGKSLTELSKILDDNQELVDIVITETQVLFKAKNVLFFSRLLDGNYPDTTSLIPQDSKTEIIVNTKEFLQAIDRASLLAREGRNNVVKLSAKPAESIEISSNSPEIGKVVEAIVADQIEGEELNISFSPKYMLDALKVLEGAEIRVSFTGAMRPFLIRTPNDETIVQLILPVRTY
As for B2, the binding result in experiment [2] was “binds”.

B3: RecA, P16971 1-348 (protein)
chain: MSDRQAALDMALKQIEKQFGKGSIMKLGEKTDTRISTVPSGSLALDTALGIGGYPRGRIIEVYGPESSGKTTVALHAIAEVQQQGGQAAFIDAEHALDPVYAQKLGVNIEELLLSQPDTGEQALEIAEALVRSGAVDIVVVDSVAALVPKAEIEGDMGDSHVGLQARLMSQALRKLSGAINKSKTIAIFINQIREKVGVMFGNPETTPGGRALKFYSSVRLEVRRAEQLKQGNDVMGNKTKIKVVKNKVAPPFRTAEVDIMYGEGISKEGEIIDLGTELDIVQKSGSWYSYEEERLGQGRENAKQFLKENKDIMLMIQEQIREHYGLDNNGVVQQQAEETQEELEFEE
As for B3, the binding result in experiment [3] and in experiment [4] was “binds” in each case.
